Laboratory results reported in US4269717A, “Boiler additives for oxygen scavenging” (priority 1980, dated 1981).

Experiment: Residual hydrazine at commercial boiler site (FIG. 3)
Details: carbohydrazide to hydrazine ratio 1:2; 300° F., 360° F. and 450° F. sample points
In the case of `NNC(=O)NN` [Carbohydrazide, N, N' diaminourea], the “Residual hydrazine levels vs straight hydrazine treatments” value is reported as “lower than those for straight hydrazine treatments”.

Same assay, conditions: carbohydrazide to hydrazine ratio 1:2; regardless of temperature
With `NNC(=O)NN` [Carbohydrazide, N, N' diaminourea] the “Residual hydrazine levels, corrected for 79.9% purity” value was “approximately half those observed for hydrazine”.

Experiment: not given
Details: initial O2 40 ppb; 227-239° F.
Description: A second more extensive group of potential oxygen scavengers were compared, again using a small laboratory boiler and oxygen saturated feed water containing sodium hydroxide. […] The hydrazine salts among this group are no less toxic than hydrazine and therefore were eliminated from further study. […] In addition, the carbohydrazide was preferred because it is a solid at room temperature and could therefore be used in dry formulations.
INITIAL SCREENING AT 227-239° F.
With `NNC(=O)NN` [Carbohydrazide, N, N' diaminourea] the “Final N2 H4” value was 33 ppb.
With `O=CNNC=O` [Diformohydrazide] the “Final N2 H4” value was “trace”.
With `COC(=O)NNC(=O)OC` [Dimethyldihydrazodicarboxylate] the “Final N2 H4” value was “trace”.
In the case of `O=C(O)NNC(=O)O` [Disodiumdihydrazodicarboxylate], the “Final N2 H4” value is reported as 241 ppb.
For `NNC=O` [Formohydrazide], the “Final N2 H4” value was 30 ppb.
For `NN.O=S(=O)(O)O` [Hydrazine sulfate, Hydrazinium sulfate, reference compound], the “Final N2 H4” value was 435 ppb.
With `NN` [Hydrazine, hydrazine, reference compound] the “Final N2 H4” value was 398 ppb.
For Di (methylformal)diazine, the “Final N2 H4” value was 244 ppb.
